Publication doi:10.1101/858647
Results are given in words; binding and its absence hold for the method and conditions named. In cells and extracts the contact can be indirect. Some binding calls cover weakened binding; strength is not graded here. For some assays here: Where a sequence is shown, tags or fusion partners need not be part of it.

Chains of the proteins cited; added tags and fusions are not shown. Residues count along the entry.
UniProt Q14151, 561-726: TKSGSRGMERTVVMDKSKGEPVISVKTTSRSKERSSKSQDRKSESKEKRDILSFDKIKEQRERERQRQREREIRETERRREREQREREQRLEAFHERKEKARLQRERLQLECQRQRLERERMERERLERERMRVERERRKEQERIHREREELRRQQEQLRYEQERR
UniProt Q14151, 512-726: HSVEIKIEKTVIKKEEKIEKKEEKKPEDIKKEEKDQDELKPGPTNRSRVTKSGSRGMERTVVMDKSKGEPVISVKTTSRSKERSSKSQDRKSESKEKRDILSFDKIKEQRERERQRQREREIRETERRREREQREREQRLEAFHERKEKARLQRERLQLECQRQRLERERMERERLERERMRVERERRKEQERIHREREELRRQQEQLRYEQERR
UniProt Q14151, whole entry: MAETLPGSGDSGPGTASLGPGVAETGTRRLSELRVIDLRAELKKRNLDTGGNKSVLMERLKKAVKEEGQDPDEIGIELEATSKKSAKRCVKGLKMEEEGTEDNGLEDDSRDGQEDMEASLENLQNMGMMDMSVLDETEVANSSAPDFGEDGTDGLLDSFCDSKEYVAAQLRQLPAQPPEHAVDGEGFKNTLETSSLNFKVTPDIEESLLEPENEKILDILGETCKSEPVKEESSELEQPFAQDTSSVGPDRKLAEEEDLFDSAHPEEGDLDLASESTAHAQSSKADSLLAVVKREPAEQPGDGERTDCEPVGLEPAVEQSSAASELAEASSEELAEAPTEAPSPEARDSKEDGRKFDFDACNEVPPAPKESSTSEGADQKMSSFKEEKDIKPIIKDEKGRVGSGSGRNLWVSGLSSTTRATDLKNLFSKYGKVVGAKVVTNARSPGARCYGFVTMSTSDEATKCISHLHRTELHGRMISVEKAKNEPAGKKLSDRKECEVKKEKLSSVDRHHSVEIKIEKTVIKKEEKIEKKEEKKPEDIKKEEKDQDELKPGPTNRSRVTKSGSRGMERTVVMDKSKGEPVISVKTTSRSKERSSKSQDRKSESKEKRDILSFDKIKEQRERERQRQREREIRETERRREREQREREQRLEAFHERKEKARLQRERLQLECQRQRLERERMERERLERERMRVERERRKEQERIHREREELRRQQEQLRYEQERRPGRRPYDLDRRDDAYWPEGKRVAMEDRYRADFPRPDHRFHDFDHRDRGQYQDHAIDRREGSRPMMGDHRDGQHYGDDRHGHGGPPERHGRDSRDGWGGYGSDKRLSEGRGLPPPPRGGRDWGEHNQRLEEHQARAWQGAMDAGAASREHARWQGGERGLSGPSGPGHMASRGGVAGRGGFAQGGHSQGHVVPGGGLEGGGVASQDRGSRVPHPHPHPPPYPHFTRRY

What was measured:
Assay in all cases: co-IP
[1] = target: full-length flag-SAFB2 (human) (UniProt Q14151)
[2] = target: flag-SAFB2^aa512-726 (human) (UniProt Q14151)
flag-SAFB2^min (human) = flag-SAFB2^min (human) (UniProt Q14151)

Row | Binder | binding [1] | binding [2] | binding (flag-SAFB2^min (human))
1 | endogenous DROSHA (enzyme, UniProt Q9NRR4 1-1374) MMQGNTCHRMSFHPGRGCPRGRGGHGARPSAPSFRPQNLRLLHPQQPPVQYQYEPPSAPSTTFSNSPAPNFLPPRPDFVPFPPPMPPSAQGPLPPCPIRPPFPNHQMRHPFPVPPCFPPMPPPMPCPNNPPVPGAPPGQGTFPFMMPPPSMPHPPPPPVMPQQVNYQYPPGYSHHNFPPPSFNSFQNNPSSFLPSANNSSSPHFRHLPPYPLPKAPSERRSPERLKHYDDHRHRDHSHGRGERHRSLDRRERGRSPDRRRQDSRYRSDYDRGRTPSRHRSYERSRERERERHRHRDNRRSPSLERSYKKEYKRSGRSYGLSVVPEPAGCTPELPGEIIKNTDSWAPPLEIVNHRSPSREKKRARWEEEKDRWSDNQSSGKDKNYTSIKEKEPEETMPDKNEEEEEELLKPVWIRCTHSENYYSSDPMDQVGDSTVVGTSRLRDLYDKFEEELGSRQEKAKAARPPWEPPKTKLDEDLESSSESECESDEDSTCSSSSDSEVFDVIAEIKRKKAHPDRLHDELWYNDPGQMNDGPLCKCSAKARRTGIRHSIYPGEEAIKPCRPMTNNAGRLFHYRITVSPPTNFLTDRPTVIEYDDHEYIFEGFSMFAHAPLTNIPLCKVIRFNIDYTIHFIEEMMPENFCVKGLELFSLFLFRDILELYDWNLKGPLFEDSPPCCPRFHFMPRFVRFLPDGGKEVLSMHQILLYLLRCSKALVPEEEIANMLQWEELEWQKYAEECKGMIVTNPGTKPSSVRIDQLDREQFNPDVITFPIIVHFGIRPAQLSYAGDPQYQKLWKSYVKLRHLLANSPKVKQTDKQKLAQREEALQKIRQKNTMRREVTVELSSQGFWKTGIRSDVCQHAMMLPVLTHHIRYHQCLMHLDKLIGYTFQDRCLLQLAMTHPSHHLNFGMNPDHARNSLSNCGIRQPKYGDRKVHHMHMRKKGINTLINIMSRLGQDDPTPSRINHNERLEFLGDAVVEFLTSVHLYYLFPSLEEGGLATYRTAIVQNQHLAMLAKKLELDRFMLYAHGPDLCRESDLRHAMANCFEALIGAVYLEGSLEEAKQLFGRLLFNDPDLREVWLNYPLHPLQLQEPNTDRQLIETSPVLQKLTEFEEAIGVIFTHVRLLARAFTLRTVGFNHLTLGHNQRMEFLGDSIMQLVATEYLFIHFPDHHEGHLTLLRSSLVNNRTQAKVAEELGMQEYAITNDKTKRPVALRTKTLADLLESFIAALYIDKDLEYVHTFMNVCFFPRLKEFILNQDWNDPKSQLQQCCLTLRTEGKEPDIPLYKTLQTVGPSHARTYTVAVYFKGERIGCGKGPSIQQAEMGAAMDALEKYNFPQMAHQKRFIERKYRQELKEMRWEREHQEREPDETEDIKK | binds | binds | binds
2 | HA-tagged N-terminal part of DROSHA (aa1-389) (domain or fragment, UniProt Q9NRR4 1-389) MMQGNTCHRMSFHPGRGCPRGRGGHGARPSAPSFRPQNLRLLHPQQPPVQYQYEPPSAPSTTFSNSPAPNFLPPRPDFVPFPPPMPPSAQGPLPPCPIRPPFPNHQMRHPFPVPPCFPPMPPPMPCPNNPPVPGAPPGQGTFPFMMPPPSMPHPPPPPVMPQQVNYQYPPGYSHHNFPPPSFNSFQNNPSSFLPSANNSSSPHFRHLPPYPLPKAPSERRSPERLKHYDDHRHRDHSHGRGERHRSLDRRERGRSPDRRRQDSRYRSDYDRGRTPSRHRSYERSRERERERHRHRDNRRSPSLERSYKKEYKRSGRSYGLSVVPEPAGCTPELPGEIIKNTDSWAPPLEIVNHRSPSREKKRARWEEEKDRWSDNQSSGKDKNYTSIKE |  |  | binds
3 | HA-tagged C-terminal part of DROSHA (aa390-1374) (domain or fragment, UniProt Q9NRR4 390-1374) KEPEETMPDKNEEEEEELLKPVWIRCTHSENYYSSDPMDQVGDSTVVGTSRLRDLYDKFEEELGSRQEKAKAARPPWEPPKTKLDEDLESSSESECESDEDSTCSSSSDSEVFDVIAEIKRKKAHPDRLHDELWYNDPGQMNDGPLCKCSAKARRTGIRHSIYPGEEAIKPCRPMTNNAGRLFHYRITVSPPTNFLTDRPTVIEYDDHEYIFEGFSMFAHAPLTNIPLCKVIRFNIDYTIHFIEEMMPENFCVKGLELFSLFLFRDILELYDWNLKGPLFEDSPPCCPRFHFMPRFVRFLPDGGKEVLSMHQILLYLLRCSKALVPEEEIANMLQWEELEWQKYAEECKGMIVTNPGTKPSSVRIDQLDREQFNPDVITFPIIVHFGIRPAQLSYAGDPQYQKLWKSYVKLRHLLANSPKVKQTDKQKLAQREEALQKIRQKNTMRREVTVELSSQGFWKTGIRSDVCQHAMMLPVLTHHIRYHQCLMHLDKLIGYTFQDRCLLQLAMTHPSHHLNFGMNPDHARNSLSNCGIRQPKYGDRKVHHMHMRKKGINTLINIMSRLGQDDPTPSRINHNERLEFLGDAVVEFLTSVHLYYLFPSLEEGGLATYRTAIVQNQHLAMLAKKLELDRFMLYAHGPDLCRESDLRHAMANCFEALIGAVYLEGSLEEAKQLFGRLLFNDPDLREVWLNYPLHPLQLQEPNTDRQLIETSPVLQKLTEFEEAIGVIFTHVRLLARAFTLRTVGFNHLTLGHNQRMEFLGDSIMQLVATEYLFIHFPDHHEGHLTLLRSSLVNNRTQAKVAEELGMQEYAITNDKTKRPVALRTKTLADLLESFIAALYIDKDLEYVHTFMNVCFFPRLKEFILNQDWNDPKSQLQQCCLTLRTEGKEPDIPLYKTLQTVGPSHARTYTVAVYFKGERIGCGKGPSIQQAEMGAAMDALEKYNFPQMAHQKRFIERKYRQELKEMRWEREHQEREPDETEDIKK |  |  | no binding
